{"source": "PubChem BioAssay AID1508597 (Cure First, 2020)", "aim": "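Survival screen with siRNA in ovarian cancer cells derived from patients, with or without rucaparib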 (primary screen)", "system": "human ovarian carcinoma lines grown from tumours: OCI-P5x (papillary serous) and OCI-C5x (clear cell)", "knock-down reagent": "siRNA pool against human genes, 1.25 pmol siRNA per well", "duration": "72 h or 96 h, depending on the cell culture", "treatment": "rucaparib 20 µM (about IC30) or vehicle, present until read-out", "measurement": "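Luminescent ATP-based viability assay read 72 or 96 h after transfection, depending on culture, given as normalised percent viability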", "reading the numbers": "viability, normalised: higher = more viable cells remaining", "active means": "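a well counts as a hit if its normalised viability is under 80 percent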", "calls": "active = viability under 80%; inactive = viability 80% or more", "note": "Shown is a random part of about 2,100 reagents tested. 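Calls flag viability under 80% in either arm, not effects specific to rucaparib; the reference for percent is not stated.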 The record does not give: the 100% reference."}
{"gene":"MAP3K11","rucaparib or vehicle":"Rucaparib","cell line":"OCI-C5x (clear cell)","technical replicate":"1","viability, normalised (%)":51.2,"call":"active"}
{"gene":"MAP3K11","rucaparib or vehicle":"Rucaparib","cell line":"OCI-C5x (clear cell)","technical replicate":"2","viability, normalised (%)":48.8,"call":"active"}
{"gene":"MAP3K11","rucaparib or vehicle":"Rucaparib","cell line":"OCI-C5x (clear cell)","technical replicate":"3","viability, normalised (%)":54.6,"call":"active"}
{"gene":"MAP3K11","rucaparib or vehicle":"Rucaparib","cell line":"OCI-P5x (serous)","technical replicate":"1","viability, normalised (%)":103,"call":"inactive"}
{"gene":"MAP3K11","rucaparib or vehicle":"Rucaparib","cell line":"OCI-P5x (serous)","technical replicate":"2","viability, normalised (%)":106,"call":"inactive"}
{"gene":"MAP3K11","rucaparib or vehicle":"Rucaparib","cell line":"OCI-P5x (serous)","technical replicate":"3","viability, normalised (%)":89.7,"call":"inactive"}
{"gene":"MAP3K11","rucaparib or vehicle":"Vehicle","cell line":"OCI-C5x (clear cell)","technical replicate":"1","viability, normalised (%)":66.7,"call":"active"}
{"gene":"MAP3K11","rucaparib or vehicle":"Vehicle","cell line":"OCI-C5x (clear cell)","technical replicate":"2","viability, normalised (%)":46,"call":"active"}
{"gene":"MAP3K11","rucaparib or vehicle":"Vehicle","cell line":"OCI-C5x (clear cell)","technical replicate":"3","viability, normalised (%)":63.4,"call":"active"}
{"gene":"MAP3K11","rucaparib or vehicle":"Vehicle","cell line":"OCI-P5x (serous)","technical replicate":"1","viability, normalised (%)":113,"call":"inactive"}
{"gene":"MAP3K11","rucaparib or vehicle":"Vehicle","cell line":"OCI-P5x (serous)","technical replicate":"2","viability, normalised (%)":101,"call":"inactive"}
{"gene":"MAP3K11","rucaparib or vehicle":"Vehicle","cell line":"OCI-P5x (serous)","technical replicate":"3","viability, normalised (%)":95.3,"call":"inactive"}
